For the assay, the system named is L1210 leukemia ip in BDF1 mice, survival T/C. Briefly: NCI In Vivo Anticancer Drug Screen. Data for tumor model L1210 Leukemia (intraperitoneal) in B6D2F1 (BDF1) mice. The following applies: T/C endpoint: mean survival time, higher T/C = longer survival.
[1] abbreviates: dose: 300.0 mg/kg/injection, schedule: Q01DX001 (ip), vehicle: saline.
[2] abbreviates: dose: 400.0 mg/kg/injection, schedule: Q04DX002 (ip), vehicle: Klucel (hydroxypropylcellulose) (HPC).
Where [3] appears, read: dose: 400.0 mg/kg/injection, schedule: Q04DX002 (ip), vehicle: saline.
Setting [4] is: dose: 400.0 mg/kg/injection, schedule: Q04DX003 (ip), vehicle: saline with Tween-80.
The mark [5] stands for this setting: dose: 400.0 mg/kg/injection, schedule: Q01DX001 (ip), vehicle: carboxymethylcellulose (CMC).
The mark [6] stands for this setting: dose: 400.0 mg/kg/injection, schedule: Q01DX001 (ip), vehicle: saline.
The mark [7] stands for this setting: dose: 100.0 mg/kg/injection, schedule: Q04DX003 (ip), vehicle: saline with Tween-80.
[8] abbreviates: dose: 200.0 mg/kg/injection, schedule: Q04DX003 (ip), vehicle: saline with Tween-80.
Setting [9] is: dose: 400.0 mg/kg/injection, schedule: Q01DX009 (ip), vehicle: Klucel (hydroxypropylcellulose) (HPC).
[10] abbreviates: dose: 200.0 mg/kg/injection, schedule: Q01DX009 (ip), vehicle: Klucel (hydroxypropylcellulose) (HPC).
Setting [11] is: dose: 200.0 mg/kg/injection, schedule: Q01DX009 (ip), vehicle: water.

In PubChem BioAssay AID248 (DTP/NCI, 2004) one finds T/C and survivor count data, which are given here for 33 compounds.

SMILES strings stand for the structures. The list is a part of this screen's results and no random one: it gathers tests that were run many times, whatever their T/C, doses with no T/C, and many T/C values between a quarter and a half above the control. Other doses and runs of a compound stand elsewhere. T/C: endpoint of the treated group in % of that of the vehicle group. Some doses have a count of surviving animals in place of a T/C: the source files T/C as zero there, which appears to mark a toxic dose or a test without result, not a measured value. Some survivor counts are full or nearly so, which does not show that the dose was tolerated: survival well below the control is almost never listed, so the zero probably covers shortened survival too. Survivors were counted at the toxicity check, usually on the fifth day, unless a day is given; later deaths do not show. Schedules are NCI's codes, read here as Q, the interval in days (D) or hours (H), X, the number of doses. Where survival is the endpoint, the PubChem record calls one and a half times the control and up active, and a quarter to a half above the control has no call in these data; cut-offs in other NCI protocols can differ. Some entries were tested several times; the values are given in rising order. Some T/C values carry the count of animals alive at the toxicity check (mostly the fifth day); where none is given, no animal had died by that day.

With `Cc1[nH]nc(C(=O)N(C)C)c1N=NN(C)C`, the T/C (dose: 150.0 mg/kg/injection, schedule: Q01DX001 (ip), vehicle: saline) is 131 % of control [5 of 6 alive]. In addition, the survivor count under setting [1] was 3 of 6.
On to `CCCC1(C)COB(c2ccc(C)cc2)OC1`, for which, where the note is “dose: 25.0 mg/kg/injection, schedule: Q04DX003 (ip), vehicle: Klucel (hydroxypropylcellulose) (HPC)”, the survivor count was 4 of 4.
In the case of `CN(CC(=O)O)CC1C(c2ccccc2)C1c1ccccc1` (centres undefined), the survivor count under setting [2] is 1 of 3.
Take `CC12CC3(C)CC(C)(C1)CC(NC(=O)N(CCF)N=O)(C2)C3`: the T/C (dose: 60.0 mg/kg/injection, schedule: Q01DX001 (ip), vehicle: other) is 127 % of control; the T/C (dose: 93.0 mg/kg/injection, schedule: Q01DX001 (ip), vehicle: other) was 136 % of control; the T/C (dose: 250.0 mg/kg/injection, schedule: Q01DX001 (ip), vehicle: other) is 141 % of control [4 of 5 alive]. For the same compound, the survivor count runs as follows: (dose: 500.0 mg/kg/injection, schedule: Q01DX001 (ip), vehicle: other) 3 of 6; (dose: 750.0 mg/kg/injection, schedule: Q01DX001 (ip), vehicle: other) 1 of 6.
On to `CC(=O)N=c1ccccn1O`, for which, under setting [3], the survivor count is recorded as 3 of 3.
As to `CSc1sc2ccc(S(=O)(=O)O)cc2[n+]1C`, the survivor count under setting [4] is given as 5 of 6.
On to `CC1CCN(C(=O)CCCCl)CC1`, for which, under setting [3], the survivor count was 3 of 3.
In the case of `CC1(N2CCCC2)CCCCC1`, the survivor count by setting is: (dose: 200.0 mg/kg/injection, schedule: Q01DX001 (ip), vehicle: carboxymethylcellulose (CMC)) 2 of 4; under setting [5], 1 of 4.
For `O=C(CCl)NC(=O)CCl`, the survivor count is, setting by setting: under setting [6], 2 of 6; under setting [4], 0 of 6.
In the case of `N#Cc1cn(C2OC(CO)C(O)C2O)c2ncn(O)c(=N)c12` (centres undefined), the survivor count runs as follows: (dose: 3.12 mg/kg/injection, schedule: Q01DX005 (ip), vehicle: saline) 5 of 6; (dose: 6.25 mg/kg/injection, schedule: Q01DX005 (ip), vehicle: saline) 2 of 6; (dose: 12.5 mg/kg/injection, schedule: Q01DX005 (ip), vehicle: saline) 0 of 6; (dose: 25.0 mg/kg/injection, schedule: Q01DX005 (ip), vehicle: saline) 0 of 6; (dose: 50.0 mg/kg/injection, schedule: Q01DX005 (ip), vehicle: saline) 0 of 6; (dose: 100.0 mg/kg/injection, schedule: Q01DX005 (ip), vehicle: saline) 0 of 6. The survivor count (dose: 200.0 mg/kg/injection, schedule: Q01DX005 (ip), vehicle: saline) is listed as 0 of 6.
As to `CCCC1C2=C(C(=O)OC2=O)C2C(CC)CC3=C(C(=O)OC3=O)C12` (centres undefined), the survivor count (dose: 335.0 mg/kg/injection, schedule: Q01DX001 (ip), vehicle: Klucel (hydroxypropylcellulose) (HPC)) is 1 of 6.
As for `N#CCc1cnc2ccccc2n1`, the survivor count reads like this: (dose: 50.0 mg/kg/injection, schedule: Q04DX003 (ip), vehicle: saline with Tween-80) 1 of 6; under setting [7], 0 of 6; under setting [8], 0 of 6; under setting [4], 0 of 6.
Consider `O=[N+]([O-])c1cccc(N=Nc2ccc(O)cc2)c1`, for which the survivor count is, setting by setting: (dose: 300.0 mg/kg/injection, schedule: Q01DX009 (ip), vehicle: Klucel (hydroxypropylcellulose) (HPC)) 0 of 6; under setting [9], 1 of 6.
For `CNC(=S)c1ccc(Cl)cc1`, the survivor count by setting is: (dose: 50.0 mg/kg/injection, schedule: Q01DX009 (ip), vehicle: Klucel (hydroxypropylcellulose) (HPC)) 2 of 6; (dose: 100.0 mg/kg/injection, schedule: Q01DX009 (ip), vehicle: Klucel (hydroxypropylcellulose) (HPC)) 0 of 6; under setting [10], 0 of 6; under setting [9], 0 of 6.
Take `Cc1nccn1-c1ccccc1N=Cc1ccc(N(CCCl)CCCl)cc1`: the survivor count is given as 1 of 3 (dose: 100.0 mg/kg/injection, schedule: Q04DX002 (ip), vehicle: saline); 0 of 3 (dose: 200.0 mg/kg/injection, schedule: Q04DX002 (ip), vehicle: saline); 0 of 3 under setting [3].
Regarding `CC1([N+](=O)[O-])COP(=O)(NC2CCCC2)OC1` (centres undefined), the survivor count under setting [6] was 1 of 4.
With `Cc1cc(-c2ccccc2)c2ccccc2c1N(CC(=O)O)S(=O)(=O)c1ccccc1`, for the setting “dose: 400.0 mg/kg/injection, schedule: Q01DX009 (ip), vehicle: saline with Tween-80”, the survivor count is 4 of 6.
Consider `Cc1ccc(S(=O)(=O)[n+]2ccc(C)cc2)cc1`, for which the survivor count under setting [2] is recorded as 0 of 3.
`OC(c1cccc(C(O)(C(F)(F)F)C(F)(F)F)c1)(C(F)(F)F)C(F)(F)F`: the survivor count runs as follows: (dose: 80.0 mg/kg/injection, schedule: Q01DX001 (ip), vehicle: saline) 3 of 6; (dose: 100.0 mg/kg/injection, schedule: Q01DX001 (ip), vehicle: saline) 0 of 4; (dose: 200.0 mg/kg/injection, schedule: Q01DX001 (ip), vehicle: saline) 0 of 4; under setting [6], 0 of 4.
Regarding `COc1cc(NC(=O)Nc2cc(Cl)ccc2C)c(OC)cc1Cl`, under setting [9], the survivor count is 3 of 3.
For the compound `CCCCCCCCCCCCCCCCS(=O)CCCCCCCCCCCCCCCC`, where the note is “dose: 25.0 mg/kg/injection, schedule: Q01DX009 (ip), vehicle: Klucel (hydroxypropylcellulose) (HPC)”, the survivor count was 3 of 3.
Turning to `O=C(Nc1cccc(Cl)c1)OCC#CCN1CCCC1`, where the note is “dose: 20.0 mg/kg/injection, schedule: Q01DX001 (ip), vehicle: saline”, the T/C was 126 % of control.
Take `O=c1[nH]cnc2c1nnn2C1OC(CO)C(O)C1O` (centres undefined): the T/C is, setting by setting: (dose: 40.0 mg/kg/injection, schedule: Q01DX009 (ip), vehicle: saline) 129 and 142 % of control; (dose: 60.0 mg/kg/injection, schedule: Q01DX009 (ip), vehicle: saline) 141 and 143 % of control.
For `CCC(=O)c1ccc(OC(=O)Nc2ccc(C)c(NC(=O)Oc3ccc(C(=O)CC)cc3)c2)cc1`, the survivor count (dose: 400.0 mg/kg/injection, schedule: Q01DX009 (ip), vehicle: other) is 3 of 6.
On to `CCCP(=S)(C(C)C)C(C)C`, for which the survivor count is, setting by setting: under setting [8], 1 of 6; under setting [4], 0 of 6.
As to `c1cc2cc3c(cc2cc1CC1NCCc2cc4c(cc21)OCO4)OCO3` (centres undefined), the survivor count is given as 2 of 6 under setting [10] and 6 of 6 (dose: 400.0 mg/kg/injection, schedule: Q04DX003 (ip), vehicle: Klucel (hydroxypropylcellulose) (HPC)).
For `O=C(O)C1(C(=O)O)CCC2(CCCCC2)CC1`, the survivor count is, setting by setting: (dose: 100.0 mg/kg/injection, schedule: Q01DX009 (ip), vehicle: water) 3 of 6; under setting [11], 0 of 6; (dose: 400.0 mg/kg/injection, schedule: Q01DX009 (ip), vehicle: water) 0 of 6.
Turning to `Cc1cc(O)c(CN(C)C)cc1O`, the survivor count under setting [1] is 0 of 6.
As for `CC(C)(NCc1ccccc1)C(=O)c1ccccc1`, the survivor count is, setting by setting: under setting [10], 6 of 6; under setting [5], 1 of 4; under setting [9], 3 of 6.
With `NCCCn1c2ccccc2c2cnccc21`, the survivor count is reported as 0 of 6 under setting [11]; 0 of 6 (dose: 200.0 mg/kg/injection, schedule: Q04DX003 (ip), vehicle: water); 0 of 6 (dose: 400.0 mg/kg/injection, schedule: Q04DX003 (ip), vehicle: water).
Regarding `C=CCN(CC=C)C(=S)NC(=O)c1ccccc1`, the survivor count under setting [9] is given as 3 of 6.
For `CC(O)CN1CCCCCC1` (centres undefined), the survivor count under setting [7] is 1 of 6, the survivor count under setting [8] is given as 0 of 6 and the survivor count under setting [4] is 0 of 6.
Consider `CCCCOC(=O)c1cccnc1`, for which the survivor count under setting [8] is 6 of 6.
